# Data source: PubChem BioAssay AID1224830 (NIAID, 2016)
# Purpose: 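Genes whose knock-down alters the TNF-alpha reporter response to LPS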 (primary screen)
# Cells: human THP-1 monocytic leukaemia cells, TNF dual-luciferase reporter clone, PMA-differentiated to macrophage-like cells
# Knock-down reagent: siRNA pool against human genes, 50 nM
# Duration: LPS for 4 h, given about 3 days after siRNA transfection
# Challenge: bacterial LPS (TLR4 ligand), 10 ng/ml
# Measured: 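Ratio of firefly to renilla light, scaled to the plate median and expressed as a robust z-score per replicate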
# Reading the numbers: TNF reporter robust z-score: higher = stronger TNF reporter response to LPS
# Rule for the call: 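a well is active when its z-score exceeds 2.8 or falls below -1.5; control wells carry no call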
# Here is one part, drawn at random, of about 18,000 reagents tested. About 2,900 of all reagents (16%) were called active. 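Calls are made per well; low scores hint the gene aids the LPS response, high scores that it dampens it.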 Repeated entries: four replicate wells of each siRNA pool.
gene knocked down,TNF reporter robust z-score,call
ZNF397,-0.35,inactive
ZNF397,0.1,inactive
ZNF397,-1,inactive
ZNF397,0.16,inactive
CNTN1,0.52,inactive
CNTN1,2.25,inactive
CNTN1,1.36,inactive
CNTN1,0.31,inactive
EFNA5,0.53,inactive
EFNA5,-0.19,inactive
EFNA5,0.42,inactive
EFNA5,1.54,inactive
ACE2,0,inactive
ACE2,-0.41,inactive
ACE2,0.44,inactive
ACE2,-0.09,inactive
NUP85,0.27,inactive
NUP85,0.92,inactive
NUP85,0.5,inactive
NUP85,-0.55,inactive
MAFF,0.82,inactive
MAFF,0.49,inactive
MAFF,-0.62,inactive
MAFF,-1.01,inactive
FBXW4,0.12,inactive
FBXW4,0.97,inactive
FBXW4,2.98,active
FBXW4,-0.75,inactive
EXD2,-0.41,inactive
EXD2,-0.11,inactive
EXD2,1.15,inactive
EXD2,1.01,inactive
STAM,3.62,active
STAM,0.95,inactive
STAM,0.17,inactive
STAM,1.18,inactive
ZDHHC24,0.1,inactive
ZDHHC24,2.19,inactive
ZDHHC24,0.15,inactive
ZDHHC24,-0.12,inactive
HOXB9,0.74,inactive
HOXB9,1.16,inactive
HOXB9,0.47,inactive
HOXB9,0.11,inactive
ADAMTS8,0.25,inactive
ADAMTS8,0.26,inactive
ADAMTS8,0.32,inactive
ADAMTS8,0.22,inactive
SELP,1.45,inactive
SELP,2.57,inactive
SELP,-0.04,inactive
SELP,0.31,inactive
RTN4IP1,-1.9,active
RTN4IP1,-1.28,inactive
RTN4IP1,-1.23,inactive
RTN4IP1,-0.61,inactive
MRTFB,-0.32,inactive
MRTFB,-0.56,inactive
MRTFB,-0.49,inactive
MRTFB,-0.01,inactive

Already shown: 10 of the entries above.
gene knocked down,TNF reporter robust z-score,call
ZDHHC24,0.15,inactive
ZDHHC24,-0.12,inactive
HOXB9,0.74,inactive
HOXB9,1.16,inactive
HOXB9,0.47,inactive
HOXB9,0.11,inactive
ADAMTS8,0.25,inactive
ADAMTS8,0.26,inactive
ADAMTS8,0.32,inactive
ADAMTS8,0.22,inactive

Next results follow:
gene knocked down,TNF reporter robust z-score,call
ALX1,0.43,inactive
ALX1,2.32,inactive
ALX1,0.82,inactive
ALX1,4.68,active
GNPAT,-0.38,inactive
GNPAT,-0.32,inactive
GNPAT,-0.19,inactive
GNPAT,0.79,inactive
TIPRL,0.33,inactive
TIPRL,-0.28,inactive
TIPRL,0.23,inactive
TIPRL,0.7,inactive
NME4,-0.91,inactive
NME4,-0.05,inactive
NME4,-1.01,inactive
NME4,-0.22,inactive
EPHA8,1.07,inactive
EPHA8,0.92,inactive
EPHA8,0.58,inactive
EPHA8,0.87,inactive
ANXA5,2,inactive
ANXA5,0.05,inactive
ANXA5,-0.04,inactive
ANXA5,2.04,inactive
ATP23,1.06,inactive
ATP23,0,inactive
ATP23,-0.85,inactive
ATP23,-0.23,inactive
TRIM55,0.08,inactive
TRIM55,-0.65,inactive
TRIM55,0.41,inactive
TRIM55,1.5,inactive
C12orf43,0.09,inactive
C12orf43,0.66,inactive
C12orf43,1.68,inactive
C12orf43,0.97,inactive
MPV17L,-1.25,inactive
MPV17L,-0.23,inactive
MPV17L,0,inactive
MPV17L,-0.11,inactive
IL31RA,1.04,inactive
IL31RA,-0.97,inactive
IL31RA,0.7,inactive
TRMT11,-0.48,inactive
TRMT11,-0.83,inactive
TRMT11,-0.42,inactive
TRMT11,-0.08,inactive
TMTC3,-0.56,inactive
TMTC3,0.08,inactive
TMTC3,-0.08,inactive
TMTC3,0.45,inactive
